Experimental data reported in PubChem BioAssay AID274 (DTP/NCI, 2004).
The list is a part of this screen's results and no random one: it is rich in T/C values a quarter to a half above the control, in often repeated tests (any T/C) and in doses without a T/C. Further doses and runs are listed elsewhere. T/C is the treated group as % of the vehicle group. Some doses have a count of surviving animals in place of a T/C: the source files T/C as zero there, which appears to mark a toxic dose or a test without result, not a measured value. Some survivor counts are full or nearly so, which does not show that the dose was tolerated: survival well below the control is almost never listed, so the zero probably covers shortened survival too. Counts of survivors are from the toxicity check (mostly the fifth day) where no day follows; animals may have died later. Schedules are NCI's codes, read here as Q, the interval in days (D) or hours (H), X, the number of doses. Some entries hold several experiments; the values are given in rising order. Some molecules as drawn cover several salts, stereoisomers or complexes of the source; a dose is that of the sample tested. Signs of the kind (2×) say how often a value occurs here. For survival time, this PubChem deposit counts one and a half times the control or more as active, and values a quarter to a half above the control carry no call in these data; other NCI protocols may use other cut-offs. Some T/C values carry the count of animals alive at the toxicity check (mostly the fifth day); where none is given, no animal had died by that day.

Tested on: BDF1 mice, Lewis lung carcinoma iv, survival T/C
Test: NCI In Vivo Anticancer Drug Screen. Data for tumor model Lewis Lung Carcinoma (intravenous) in B6D2F1 (BDF1) mice
Details: T/C endpoint: median survival time, higher T/C = longer survival
Procedure: The antitumor activity of compounds was measured in mice bearing transplantable tumors. Survival or tumor size were measured and the results are expressed as the measurement made in the treated group (T) divided by the measurement made in the vehicle treated control group (C). The tumor model used in this assay is Lewis Lung Carcinoma (intravenous) in B6D2F1 (BDF1) mice

[1] = dose: 200.0 mg/kg/injection, schedule: Q01DX009 (ip), vehicle: saline
[2] = dose: 400.0 mg/kg/injection, schedule: Q01DX009 (ip), vehicle: saline
[3] = dose: 2.0 mg/kg/injection, schedule: Q01DX009 (ip), vehicle: water
[4] = dose: 100.0 mg/kg/injection, schedule: Q01DX009 (ip), vehicle: Klucel (hydroxypropylcellulose) (HPC)

OCCN1CCN(CC/C=C2/c3ccccc3Sc3ccc(C(F)(F)F)cc32)CC1
survivor count (dose: 6.25 mg/kg/injection, schedule: Q01DX009 (ip), vehicle: saline with Tween-80): 10 of 10 | survivor count (dose: 25.0 mg/kg/injection, schedule: Q01DX009 (ip), vehicle: saline with Tween-80): 5 of 10 | survivor count (dose: 50.0 mg/kg/injection, schedule: Q01DX009 (ip), vehicle: saline with Tween-80): 0 of 10

COc1ccc(C(Cn2ccnc2)Sc2ccc(Cl)c(Cl)c2)cc1 (stereo not drawn)
survivor count (dose: 100.0 mg/kg/injection, schedule: Q01DX009 (ip), vehicle: saline with Tween-80): 7 of 10 | survivor count (dose: 200.0 mg/kg/injection, schedule: Q01DX009 (ip), vehicle: saline with Tween-80): 0 of 10

CCC(C(=O)O)C(=O)O.[NH-]CC1CCCC[N-]1.[Pt+2]
T/C (dose: 100.0 mg/kg/injection, schedule: Q01DX009 (ip), vehicle: saline): 127 and 146 % of control [8 of 10 alive] | survivor count [1]: 4 of 10 and 10 of 10 | survivor count [2]: 1 of 10

Nc1ncnc2c1ncn2C1OC(COP(=O)(O)O)C(O)C1O (stereo not drawn)
T/C (dose: 400.0 mg/kg/injection, schedule: Q01DX009 (ip), vehicle: water): 126 % of control | survivor count (dose: 1600.0 mg/kg/injection, schedule: Q01DX009 (ip), vehicle: saline): 10 of 10

O=C(O)CC(NC(=O)CP(=O)(O)O)C(=O)O.[NH-]C1CCCCC1[NH-].[Pt+2] (stereo not drawn)
survivor count (dose: 12.5 mg/kg/injection, schedule: Q01DX009 (ip), vehicle: dextrose): 10 of 10 | survivor count (dose: 25.0 mg/kg/injection, schedule: Q01DX009 (ip), vehicle: dextrose): 9 of 10 | survivor count (dose: 50.0 mg/kg/injection, schedule: Q01DX009 (ip), vehicle: dextrose): 0 of 10 | survivor count (dose: 100.0 mg/kg/injection, schedule: Q01DX009 (ip), vehicle: dextrose): 0 of 10

CC[C@@]1(O)C[C@H](OC2CC(N(C)C)C(OC3CC(O)C(OC4CCC(=O)C(C)O4)C(C)O3)C(C)O2)c2c(cc3c(c2O)C(=O)c2c(O)ccc(O)c2C3=O)[C@H]1C(=O)OC (stereo partly drawn)
T/C (dose: 1.0 mg/kg/injection, schedule: Q01DX009 (ip), vehicle: water): 125 % of control | T/C (dose: 1.26 mg/kg/injection, schedule: Q01DX009 (ip), vehicle: water): 126 % of control | T/C (dose: 1.8 mg/kg/injection, schedule: Q01DX009 (ip), vehicle: water): 131 % of control | T/C [3]: 131 % of control | survivor count [3]: 10 of 10 | survivor count (dose: 2.57 mg/kg/injection, schedule: Q01DX009 (ip), vehicle: water): 8 of 8 | T/C (dose: 2.74 mg/kg/injection, schedule: Q04DX003 (ip), vehicle: water): 126 % of control | survivor count (dose: 3.67 mg/kg/injection, schedule: Q01DX009 (ip), vehicle: water): 8 of 8 | survivor count (dose: 4.0 mg/kg/injection, schedule: Q01DX009 (ip), vehicle: water): 10 of 10 (2×) | T/C (dose: 5.6 mg/kg/injection, schedule: Q04DX003 (ip), vehicle: water): 130 % of control | survivor count (dose: 8.0 mg/kg/injection, schedule: Q01DX009 (ip), vehicle: water): 6 of 10 | survivor count (dose: 8.0 mg/kg/injection, schedule: Q04DX003 (ip), vehicle: water): 8 of 8 (2×) | T/C (dose: 9.8 mg/kg/injection, schedule: Q01DX001 (ip), vehicle: water): 136 % of control | survivor count (dose: 13.3 mg/kg/injection, schedule: Q04DX003 (ip), vehicle: water): 8 of 8 | survivor count (dose: 14.0 mg/kg/injection, schedule: Q01DX001 (ip), vehicle: water): 8 of 8 | survivor count (dose: 20.0 mg/kg/injection, schedule: Q01DX001 (ip), vehicle: water): 5 of 8 | survivor count (dose: 22.2 mg/kg/injection, schedule: Q04DX003 (ip), vehicle: water): 3 of 8

CC1(C)COCN1COC1CCCCC1
survivor count [1]: 0 of 10 and 10 of 10 | survivor count [2]: 0 of 10 and 1 of 10

O=c1[nH]c(=O)n(C2CC(O)C(CO)O2)cc1I (stereo not drawn)
survivor count (dose: 400.0 mg/kg/injection, schedule: Q01DX009 (ip), vehicle: saline with Tween-80): 5 of 10 | survivor count (dose: 800.0 mg/kg/injection, schedule: Q01DX009 (ip), vehicle: saline with Tween-80): 6 of 10

C=C1C(C)C2C(Cc3ccccc3)NC(=O)C23C(OC(C)=O)/C=C/C(C)(O)CC(C)C/C=C/C3C1O (stereo not drawn)
survivor count (dose: 12.0 mg/kg/injection, schedule: Q01DX009 (ip), vehicle: Klucel (hydroxypropylcellulose) (HPC)): 2 of 10

COC1CC(CC2CCC(C)C(C(C)C(=O)O)O2)OC2(OC(C)(C3CCC(C)(C4OC(C5OC(O)(CO)C(C)CC5C)CC4C)O3)CC2C)C1C (stereo not drawn)
T/C (dose: 2.5 mg/kg/injection, schedule: Q01DX009 (ip), vehicle: Klucel (hydroxypropylcellulose) (HPC)): 127 % of control

CN(C)/N=N/c1nc[nH]c1C(N)=O
survivor count (dose: 25.0 mg/kg/injection, schedule: Q01DX009 (ip), vehicle: Klucel (hydroxypropylcellulose) (HPC)): 10 of 10 | survivor count (dose: 50.0 mg/kg/injection, schedule: Q01DX009 (ip), vehicle: Klucel (hydroxypropylcellulose) (HPC)): 10 of 10 | T/C (dose: 64.0 mg/kg/injection, schedule: Q01DX009 (ip), vehicle: Klucel (hydroxypropylcellulose) (HPC)): 133 % of control | T/C [4]: 126 % of control | survivor count [4]: 9 of 10 | survivor count (dose: 512.0 mg/kg/injection, schedule: Q01DX009 (ip), vehicle: Klucel (hydroxypropylcellulose) (HPC)): 0 of 10
